Data reported in PMC5472181 (Journal of Molecular Biology, 2017).

Amino acid sequences for entries named in this document (tags omitted).
UniProt P33535, whole entry, looked up: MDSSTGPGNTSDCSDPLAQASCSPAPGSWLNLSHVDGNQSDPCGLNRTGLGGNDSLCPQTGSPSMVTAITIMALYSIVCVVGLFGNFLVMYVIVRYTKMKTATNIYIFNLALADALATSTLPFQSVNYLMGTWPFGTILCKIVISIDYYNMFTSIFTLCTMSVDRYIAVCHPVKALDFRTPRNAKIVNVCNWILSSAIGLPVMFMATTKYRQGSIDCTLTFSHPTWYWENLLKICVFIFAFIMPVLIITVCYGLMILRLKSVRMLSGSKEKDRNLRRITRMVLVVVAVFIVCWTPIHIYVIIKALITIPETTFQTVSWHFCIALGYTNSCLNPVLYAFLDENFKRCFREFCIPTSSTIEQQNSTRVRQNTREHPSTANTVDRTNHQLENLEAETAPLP

Key:
[1] = target: T1, HA-tagged rat MOPr (Rattus norvegicus, UniProt P33535); test: cell-based
T1 construct: gene Oprm1

[2] = target: T2, rat MOPr-yellow fluorescent protein (YFP) (Rattus norvegicus, UniProt P33535)
T2 construct: gene Oprm1

Question: What does the source list for `CO[C@]12CC[C@@]3(C[C@@H]1[C@](C)(O)C(C)(C)C)[C@H]1Cc4ccc(O)c5c4[C@@]3(CCN1CC1CC1)[C@H]2O5` [buprenorphine]?
Answer: EC50 [1]: 283 ± 232 nM; EC50 [2]: ~ 100 nM
